Entries after “also recorded” stand apart in the source; their conditions may differ. At least one compound was matched to its structure with a doubt left.
Tests used:
Format in all cases: in vivo, mouse
diabetic CD-1 mice = test: FA modulators (fenofibrate, etomoxir, C75, simvastatin) in diabetic CD-1 mice; conditions: for fibrogenic phenotype / level of fibrosis / level of GR protein in CD31 positive cells: treated for 4 weeks; for fibronectin mRNA level / αSMA mRNA level: diabetic kidneys, CD-1 mice
Description: FIG. 33A-33F show endothelial GR is essential for the action of anti-dyslipidemic drugs in the diabetic kidney disease. (FIG. 33A) Masson trichrome (MTS) and Sirius red staining in kidneys of control, diabetic, fenofibrate-, etomoxir-, C75- and simvastatin-treated diabetic mice. Representative images (original magnification 300×) are shown. Relative area of fibrosis (%) and relative collagen deposition (%) were measured using the ImageJ program. n=6 biologically independent mice/group combined from two experiments were analyzed. Scale bar 50 μm. (FIG. 33B) Co-immunolabeling of GR/CD31 was analyzed by fluorescence microscopy. FITC-labeled GR, rhodamine-labeled CD31 and DAPI were used. Representative images are shown; original magnification 300×. Scale bar 50 μm. n=6 biologically independent mice/group combined from two experiments were analyzed. (FIG. 33C) PCR gene analiof fibronectin and α-SMA in the kidneys. 18S was used as an internal control. n=6 biologically independent mice/group. (FIG. 33D) Blood glucose measurements in control, diabetic, fenofibrate-, etomoxir-, C75- and simvastatin-treated diabetic mice. n=6 biologically independent mice/group. (FIG. 33E) Radiolabeled [^14C]palmitate oxidation and [^14CO2]release were measured. CPM of each sample was counted. Endothelial cells isolated from six biologically independent mice were evaluated. Three independent experiments were analyzed. Data are mean±SEM (FIG. 33F) Immunohistochemical analysis of CPT1a and β-catenin was analyzed in the kidneys of control, diabetic, fenofibrate-, C75-, etomoxir- and simvastatin-treated diabetic mice. n=6 biologically independent mice/group. Representative images are shown; original magnification 400×. Scale bar 50 μm. Data are mean SEM. In all panels, one-way Anova with Tukey multiple comparison post hoc test was used to calculate statistical significance. Significance—*p<0.05, **p<0.01, ***p<0.001. Con: control, DM: diabetic, feno: fenofibrate.
A single IP dose of 200 mg/kg STZ was used to induce diabetes in CD-1 mice.
In one experiment, male mice were randomized to one of 4 groups sixteen weeks after induction of diabetes: (i) untreated, (ii) fenofibrate (100 mg/kg), (iii) simvastatin (40 mg/kg), or (iv) Wnt inhibitor (LGK974; 5 mg/kg). In each case, mice were treated for 4 weeks and compared to untreated diabetic CD-1 mice. In another experiment, male diabetic CD-1 mice were randomized into one of 3 groups: (i) untreated (vehicle), (ii) etomoxir (20 mg/kg) or (iii) C75 (15 mg/kg); in each case mice were treated (IP) three times/week for a total 4 weeks.
Morphological Evaluation. A point-counting method was utilized to evaluate the relative area of the mesangial matrix. The inventors analyzed PAS-stained glomeruli from each mouse using a digital microscope screen grid containing 540 (27×20) points. Masson's trichrome-stained images were evaluated by ImageJ software, and the fibrotic areas were estimated.
Sirius red staining. Deparaffinized sections were incubated with picrosirius red solution for 1 hour at room temperature. The slides were washed twice with acetic acid solution for 30 seconds per wash. The slides were then dehydrated in absolute alcohol three times, cleared in xylene, and mounted with a synthetic resin. Sirius red staining was analyzed using ImageJ software, and fibrotic areas were quantified.
Immunohistochemistry. Paraffin-embedded kidney sections (5 μm thick) were deparaffinized and rehydrated (2 min in xylene, four times; 1 min in 100% ethanol, twice; 1 min in 95% ethanol; 45 s in 70% ethanol; and 1 min in distilled water), and the antigen was retrieved in a 10 mM citrate buffer pH 6 at 98° C. for 60 min. To block the endogenous peroxidase, all sections were incubated in 0.3% hydrogen peroxide for 10 min. The immunohistochemistry was performed using a Vectastain ABC Kit (Vector Laboratories, Burlingame, CA). Mouse anti-β-catenin antibody (1:100) and CPT1a (Abnova; H00001374-DO1P; 1:100) antibodies were used. […]

[1] = tested on: nondiabetic control CD-1 mice; test: Dexamethasone treatment in non-diabetic CD-1 mice, Masson trichrome staining
[2] = tested on: C57BL/6 mice subjected to UUO; test: Dexamethasone treatment in unilateral ureteral obstruction (UUO) mice, Masson trichrome staining

Structure (SMILES)	fibrogenic phenotype / level of fibrosis (diabetic CD-1 mice; diabetic CD-1 mice)	level of GR protein in CD31 positive cells (diabetic CD-1 mice; diabetic CD-1 mice)	fibronectin mRNA level (diabetic CD-1 mice)	αSMA mRNA level (diabetic CD-1 mice)	CPT1a level (diabetic CD-1 mice; diabetic CD-1 mice)	FAO, as measured by [14CO2] release (diabetic CD-1 mice; diabetic CD-1 mice)	β-catenin level (diabetic CD-1 mice; diabetic CD-1 mice)	renal fibrosis (relative area of fibrosis) [1]	renal fibrogenic phenotype ([2]; UUO kidneys, C57BL/6 mice, dexamethasone 1 mg/kg in the drinking water, by day 10)	renal fibrosis ([2]; contralateral kidneys of C57BL/6 mice, day 15)
CCC(C)(C)C(=O)O[C@H]1C[C@@H](C)C=C2C=C[C@H](C)[C@H](CC[C@@H]3C[C@@H](O)CC(=O)O3)[C@H]21 [simvastatin]	did not cause significant suppression; also recorded: did not ameliorate the severity of renal fibrosis	did not show any substantial effect	did not cause any significant change	did not cause any significant change						
CC(C)OC(=O)C(C)(C)Oc1ccc(C(=O)c2ccc(Cl)cc2)cc1 [fenofibrate]	ameliorated the fibrogenic phenotype	restored	downregulated	downregulated	increased the expression of CPT1a	increased the level of FAO	suppressed the level of β-catenin			
C[C@@H]1C[C@H]2[C@@H]3CCC4=CC(=O)C=C[C@]4(C)[C@@]3(F)[C@@H](O)C[C@]2(C)[C@@]1(O)C(=O)CO [dexamethasone]								did not cause any remarkable alteration	abolished the renal fibrogenic phenotype	slightly suppressed the renal fibrosis

— patent US20250179167A1, “IL-6 INHIBITOR AS TREATMENT FOR NEPHROPATHY” (YALE UNIVERSITY, priority 2022, published 2025)
